Data on two molecules can be found in article PMC9174544.

Chains of the proteins cited; added tags and fusions are not shown.
UniProt P52732: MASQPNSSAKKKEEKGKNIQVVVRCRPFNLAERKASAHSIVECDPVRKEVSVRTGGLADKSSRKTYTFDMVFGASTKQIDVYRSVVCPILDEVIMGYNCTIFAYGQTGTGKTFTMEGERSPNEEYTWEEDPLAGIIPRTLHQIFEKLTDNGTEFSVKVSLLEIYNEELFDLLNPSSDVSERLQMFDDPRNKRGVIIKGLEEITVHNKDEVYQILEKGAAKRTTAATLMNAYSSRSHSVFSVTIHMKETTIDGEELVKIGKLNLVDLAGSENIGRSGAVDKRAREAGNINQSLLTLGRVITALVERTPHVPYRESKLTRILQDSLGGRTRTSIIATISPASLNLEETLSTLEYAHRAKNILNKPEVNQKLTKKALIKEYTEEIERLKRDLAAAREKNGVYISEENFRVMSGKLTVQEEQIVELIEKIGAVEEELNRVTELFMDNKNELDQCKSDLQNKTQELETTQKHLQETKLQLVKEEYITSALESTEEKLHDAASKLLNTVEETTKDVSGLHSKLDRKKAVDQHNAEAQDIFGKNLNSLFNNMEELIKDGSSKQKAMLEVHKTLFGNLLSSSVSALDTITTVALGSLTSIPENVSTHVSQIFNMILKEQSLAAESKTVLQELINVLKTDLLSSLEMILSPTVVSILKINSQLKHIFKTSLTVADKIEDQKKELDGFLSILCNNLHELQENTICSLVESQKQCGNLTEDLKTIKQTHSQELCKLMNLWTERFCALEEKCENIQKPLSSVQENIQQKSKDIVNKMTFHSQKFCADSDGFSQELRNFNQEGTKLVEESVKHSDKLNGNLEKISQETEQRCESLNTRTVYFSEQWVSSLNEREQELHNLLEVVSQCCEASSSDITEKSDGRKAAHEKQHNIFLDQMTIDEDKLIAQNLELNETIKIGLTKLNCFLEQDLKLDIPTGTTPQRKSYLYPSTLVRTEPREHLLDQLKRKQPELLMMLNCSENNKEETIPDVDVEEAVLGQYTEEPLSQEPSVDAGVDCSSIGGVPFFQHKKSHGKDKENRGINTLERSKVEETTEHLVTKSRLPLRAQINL
UniProt Q9HAU4: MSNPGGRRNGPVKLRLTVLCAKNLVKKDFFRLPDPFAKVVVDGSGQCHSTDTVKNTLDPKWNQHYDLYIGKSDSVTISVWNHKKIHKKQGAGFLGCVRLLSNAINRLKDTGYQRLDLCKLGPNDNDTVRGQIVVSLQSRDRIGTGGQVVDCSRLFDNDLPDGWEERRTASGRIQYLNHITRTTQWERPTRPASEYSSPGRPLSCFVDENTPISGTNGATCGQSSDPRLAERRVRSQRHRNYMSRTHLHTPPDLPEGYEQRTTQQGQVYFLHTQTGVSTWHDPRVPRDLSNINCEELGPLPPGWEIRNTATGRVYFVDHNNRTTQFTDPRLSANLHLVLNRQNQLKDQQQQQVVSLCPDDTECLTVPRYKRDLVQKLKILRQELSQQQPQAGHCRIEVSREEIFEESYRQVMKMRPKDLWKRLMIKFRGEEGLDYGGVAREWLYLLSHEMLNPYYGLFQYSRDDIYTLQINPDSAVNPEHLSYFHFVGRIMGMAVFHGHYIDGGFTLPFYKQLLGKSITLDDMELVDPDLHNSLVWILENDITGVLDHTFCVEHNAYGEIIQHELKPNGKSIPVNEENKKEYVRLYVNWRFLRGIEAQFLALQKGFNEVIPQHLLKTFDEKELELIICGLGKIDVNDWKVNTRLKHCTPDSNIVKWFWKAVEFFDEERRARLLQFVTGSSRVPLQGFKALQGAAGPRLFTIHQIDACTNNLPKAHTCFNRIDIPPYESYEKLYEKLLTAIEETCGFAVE

Where two headings read alike, the source gives them in different places. Results are given in words; binding and its absence hold for the method and conditions named. Binding seen in cells or lysates may run through a third protein. Some results given as binding are weak or reduced against the parent protein; the word gives no strength.

Common to all, as to test: co-IP; endogenous proteins in MCF-7 (and, for TRAF4 with Eg5, MDA-MB-231) cell lysates; antibodies against TRAF4, Eg5 or Smurf2, agarose A/G beads, 4°C, immunoblotting; for Smurf2 with Eg5 also after TRAF4 si-RNA
A general note: Immunoblotting shows a protein as a band on a membrane.

Assay [1] deals with Eg5 (human (endogenous in MCF-7 and MDA-MB-231)) (UniProt P52732).
Assay [2] has the same target. This is another data set of the same source.
The target in assay [3] is Smurf2 (human (endogenous in MCF-7)) (UniProt Q9HAU4).

For the molecule Smurf2 (from UniProt Q9HAU4 1-748), in assay [1], the binding entry is given as “binds”.

B1: Tumor necrosis factor receptor associated factor 4 (TRAF4) (protein, UniProt Q9BUZ4 1-470)
chain: MPGFDYKFLEKPKRRLLCPLCGKPMREPVQVSTCGHRFCDTCLQEFLSEGVFKCPEDQLPLDYAKIYPDPELEVQVLGLPIRCIHSEEGCRWSGPLRHLQGHLNTCSFNVIPCPNRCPMKLSRRDLPAHLQHDCPKRRLKCEFCGCDFSGEAYESHEGMCPQESVYCENKCGARMMRRLLAQHATSECPKRTQPCTYCTKEFVFDTIQSHQYQCPRLPVACPNQCGVGTVAREDLPGHLKDSCNTALVLCPFKDSGCKHRCPKLAMARHVEESVKPHLAMMCALVSRQRQELQELRRELEELSVGSDGVLIWKIGSYGRRLQEAKAKPNLECFSPAFYTHKYGYKLQVSAFLNGNGSGEGTHLSLYIRVLPGAFDNLLEWPFARRVTFSLLDQSDPGLAKPQHVTETFHPDPNWKNFQKPGTWRGSLDESSLGFGYPKFISHQDIRKRNYVRDDAVFIRAAVELPRKILS
Consider B1, for which the binding entry in assay [2] and in assay [3] was “binds” throughout.
